PubChem BioAssay AID1508623 (National Center for Advancing Translational Sciences (NCATS), 2021)
What follows is the remainder of the data, with few or none of the hits. Records with an inconclusive call do not appear. Active and inactive are the calls of the source. Calls come from the whole dose curve; as a rule, active = well fitted inhibition curve with a large enough effect; inconclusive = small, poorly fitted or top-dose-only effect; inactive = no such curve, though single readings can be large or run the other way.

experiment: Primary qHTS for Identification of Small Molecule Inhibitors of Huntingtin Promoter Activity; conditions: HEK293 HTT promoter firefly luciferase reporter (activity 0% = vehicle and -100% = no light), 24 h; at 57.5 µM (top of the series); note: nearly all actives have a fitted effect of over 50% in size
Excerpt: Assay Provider: Russell L. Margolis M.D.
Department Neurology, Johns Hopkins University School of Medicine, Baltimore, MD
Huntington's Disease (HD) is a neurodegenerative disorder caused by a CAG repeat expansion in exon 1 of huntingtin (HTT). While there are currently no disease-modifying treatments for HD, recent efforts have focused on development of nucleotide-based therapeutics to lower HTT expression. As an alternative to siRNA or oligonucleotide methods, we hypothesized that suppression of HTT expression might be accomplished by small molecules that either (1) directly decrease HTT expression by suppressing HTT promoter activity or (2) indirectly decrease HTT expression by increasing the promoter activity of HTT-AS, the gene antisense to HTT that appears to inhibit expression of HTT. […]
7; Detection; Luminescence; FLuc […]
1; High-throughput screening, measuring luminescence from a Hek293 luciferase reporter, was performed in 1,536 well white-walled tissue-culture treated plates. […]
4; Cells were then incubated for 24 hours at 37 degrees C prior to luminescence measurements.
5; In all cases, luminescence was measured using the Dual-Glo Luciferase Reporter Assay System (Promega) following the manufacturer's instructions. […]
7; Luminescence signal was obtained using the PerkinElmer ViewLux plate reader. […]

Row | Structure (SMILES) | activity change, negative = inhibition
1 | CC(C)(C)c1ccc(O)cc1 | inactive: 12%
